# Patent publication US12049475B2, “Bisphosphonate drug conjugates” (BRISE PHARMACEUTICALS CO., LTD., priority 2018, dated 2024)
# Tested on: CED mice
# Experiment: CED mouse model, 8-week treatment: μCT of tibia and fracture incidence
# Details: 100 μg/kg per week, 8 weeks, tibia cross-sections
# Experimental: All transgenic animals used in this study are as described in the Animals section. […] During cell counting, microCT analysis and histological staining analysis, all manual quantification is performed in a blind manner to eliminate observer bias. Animals were randomly assigned to groups for experiments in CED animal studies.
# Mice: According to Tang et al., Nat Med. 15:757-765 (2009), a mutation in the coding area of the TGF-β1 latency protein was generated in mice, and the active form of TGF-β1 was secreted by osteoblasts. […] All mice received the intraperitoneal injections once a week for 2 months, beginning at 1 month of age until sacrifice at 3 months of age. The tibias of the mice were collected and analyzed.
# Microcomputed tomography analysis: Tibia collected from mice were dissected to remove soft tissue, fixed overnight in 70% ethanol, and analyzed with a high-resolution microcomputed tomography (μCT) imaging system (MicroCT40; Scanco Medical AG, Basserdorf, Switzerland). The scanner was set at a voltage of 55 kVp and a current of 109 μA. The resulting two-dimensional longitude-sectional images or three-dimensional whole-bone images are shown in gray scale. Three-dimensional structural parameters, total bone volume per tissue volume, cortical bone volume, cortical bone thickness, and cortical bone porosity were given.
smiles,measurement,value
"NCCCC(O)(P(=O)(O)O)P(=O)(O)O [ALN, 4-amino-1-hydroxybutylidene-1,1-bisphosphonic acid monosodium trihydrate, reference compound]",total BV/TV distribution,unregulated states
